In article PMC6990902 one finds binding data, which are given here for two molecules.

By UniProt entry, the sequences of proteins in these tests, tags left out.
UniProt P23677: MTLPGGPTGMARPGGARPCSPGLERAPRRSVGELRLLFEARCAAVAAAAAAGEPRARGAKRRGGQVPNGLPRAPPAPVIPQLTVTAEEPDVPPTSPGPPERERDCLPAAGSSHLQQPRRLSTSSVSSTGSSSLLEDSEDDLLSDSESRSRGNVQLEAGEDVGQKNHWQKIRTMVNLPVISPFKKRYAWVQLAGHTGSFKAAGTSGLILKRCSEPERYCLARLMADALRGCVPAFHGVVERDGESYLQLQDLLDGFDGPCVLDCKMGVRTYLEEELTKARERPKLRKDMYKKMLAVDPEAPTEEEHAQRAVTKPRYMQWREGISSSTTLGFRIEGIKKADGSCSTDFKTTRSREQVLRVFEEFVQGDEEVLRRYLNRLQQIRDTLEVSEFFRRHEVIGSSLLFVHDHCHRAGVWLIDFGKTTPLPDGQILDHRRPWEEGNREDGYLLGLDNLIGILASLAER

These are yes or no findings as the source states them, for the method shown. In cells and extracts the contact can be indirect. Some results given as binding are weak or reduced against the parent protein; the word gives no strength.

The target in assay [1] is T1, Drebrin 1 (DBN1) (human (endogenous in H1299)) (UniProt Q16643).
T1 sequence: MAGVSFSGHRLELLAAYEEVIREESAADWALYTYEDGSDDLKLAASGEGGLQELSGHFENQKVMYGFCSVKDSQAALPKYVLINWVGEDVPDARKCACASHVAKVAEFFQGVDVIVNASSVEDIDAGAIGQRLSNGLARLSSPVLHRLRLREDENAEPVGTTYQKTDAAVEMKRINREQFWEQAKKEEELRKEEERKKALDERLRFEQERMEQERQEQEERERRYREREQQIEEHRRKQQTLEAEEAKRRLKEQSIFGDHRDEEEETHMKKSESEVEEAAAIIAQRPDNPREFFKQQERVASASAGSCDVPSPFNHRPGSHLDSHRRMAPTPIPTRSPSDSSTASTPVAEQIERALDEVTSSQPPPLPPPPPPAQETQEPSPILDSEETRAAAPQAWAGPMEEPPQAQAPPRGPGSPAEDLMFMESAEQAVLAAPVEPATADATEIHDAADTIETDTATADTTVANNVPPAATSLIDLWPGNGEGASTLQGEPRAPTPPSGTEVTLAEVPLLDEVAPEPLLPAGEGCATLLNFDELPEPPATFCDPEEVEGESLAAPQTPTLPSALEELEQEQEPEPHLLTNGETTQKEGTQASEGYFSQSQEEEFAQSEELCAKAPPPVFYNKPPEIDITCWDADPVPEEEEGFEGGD
In words: co-IP; endogenous proteins from total protein of H1299 cells (RIPA lysis buffer with protease inhibitors); Pierce co-immunoprecipitation kit; precipitated with anti-ITPKA or, in reverse, anti-DBN1 antibody; normal serum IgG as negative control; detected by western blot. A general note: In western blotting, separated proteins are transferred to a membrane and probed.

Assay [2] concerns the target ITPKA (inositol 1,4,5-trisphosphate 3-kinase) (human (endogenous in H1299)) (UniProt P23677). The assay is described as above.

As to “ITPKA (inositol 1,4,5-trisphosphate 3-kinase) (from UniProt P23677 1-461)”, the binding entry in assay [1] is “binds”.

B1: Drebrin 1 (DBN1) (protein, UniProt Q16643 1-649)
chain: T1 sequence
Turning to B1, the binding result in assay [2] was “binds”.
